Measurements reported in PubChem BioAssay AID1224830 (NIAID, 2016)
In all, the deposit lists about 18,000 reagents; below is a random part of them. About 2,900 of them (16%) were called active. 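Calls are made per well; low scores hint the gene aids the LPS response, high scores that it dampens it.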 Entries without a mark were called inactive. Reagents against one gene are numbered here. Repeated entries: four replicate wells of each siRNA pool.

- Assay: 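Genes whose knock-down alters the TNF-alpha reporter response to LPS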 (primary screen)
- Cell system: human THP-1 monocytic leukaemia cells, TNF dual-luciferase reporter clone, PMA-differentiated to macrophage-like cells
- Knock-down reagent: siRNA pool against human genes, 50 nM
- Time to read-out: LPS for 4 h, given about 3 days after siRNA transfection
- Conditions: bacterial LPS (TLR4 ligand), 10 ng/ml
- Detection: 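Ratio of firefly to renilla light, scaled to the plate median and expressed as a robust z-score per replicate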
- Scale: TNF reporter robust z-score: higher = stronger TNF reporter response to LPS
- Rule for the call: 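Each well counts as active if its z-score is over 2.8 or under -1.5; controls are left without a call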

no.	gene	reagent	TNF reporter robust z-score
1	FAM47A (family with sequence similarity 47 member A)	1	-0.28
2	FAM47A (family with sequence similarity 47 member A)	1	-0.56
3	FAM47A (family with sequence similarity 47 member A)	1	1.58
4	FAM47A (family with sequence similarity 47 member A)	1	0.14
5	IFNL2 (interferon lambda 2)	1	0.64
6	IFNL2 (interferon lambda 2)	1	0.78
7	IFNL2 (interferon lambda 2)	1	0.87
8	IFNL2 (interferon lambda 2)	1	0.62
9	ZNF106 (zinc finger protein 106)	1	0.08
10	ZNF106 (zinc finger protein 106)	1	0.41
11	ZNF106 (zinc finger protein 106)	1	-0.08
12	ZNF106 (zinc finger protein 106)	1	0.49
13	USP25 (ubiquitin specific peptidase 25)	1	0.98
14	USP25 (ubiquitin specific peptidase 25)	1	1.57
15	USP25 (ubiquitin specific peptidase 25)	1	0.78
16	USP25 (ubiquitin specific peptidase 25)	1	-0.6
17	DEFB104A (defensin beta 104A)	1	7.09 (active)
18	DEFB104A (defensin beta 104A)	1	1.05
19	DEFB104A (defensin beta 104A)	1	0.99
20	DEFB104A (defensin beta 104A)	1	1.31
21	MAP7D1 (MAP7 domain containing 1)	1	0.72
22	MAP7D1 (MAP7 domain containing 1)	1	-0.56
23	MAP7D1 (MAP7 domain containing 1)	1	0.03
24	MAP7D1 (MAP7 domain containing 1)	1	0.5
25	BDKRB1 (bradykinin receptor B1)	1	-0.54
26	BDKRB1 (bradykinin receptor B1)	1	-1.11
27	BDKRB1 (bradykinin receptor B1)	1	-0.14
28	BDKRB1 (bradykinin receptor B1)	1	-1.23
29	CEMP1 (cementum protein 1)	1	2.01
30	CEMP1 (cementum protein 1)	1	2.26
31	CEMP1 (cementum protein 1)	1	0.16
32	CEMP1 (cementum protein 1)	1	1.82
33	KCNQ2 (potassium voltage-gated channel subfamily Q member 2)	1	-0.77
34	KCNQ2 (potassium voltage-gated channel subfamily Q member 2)	1	0.26
35	KCNQ2 (potassium voltage-gated channel subfamily Q member 2)	1	-0.19
36	KCNQ2 (potassium voltage-gated channel subfamily Q member 2)	1	0.79
37	ABTB3 (ankyrin repeat and BTB domain containing 3)	1	1.14
38	ABTB3 (ankyrin repeat and BTB domain containing 3)	1	-0.28
39	ABTB3 (ankyrin repeat and BTB domain containing 3)	1	-0.25
40	ABTB3 (ankyrin repeat and BTB domain containing 3)	1	-0.51
41	MISO1 (mitochondrial inner membrane subdomain organizer 1)	1	-0.46
42	MISO1 (mitochondrial inner membrane subdomain organizer 1)	1	0.87
43	MISO1 (mitochondrial inner membrane subdomain organizer 1)	1	-0.99
44	MISO1 (mitochondrial inner membrane subdomain organizer 1)	1	0.49
45	PRPF4 (pre-mRNA splicing tri-snRNP complex factor PRPF4)	1	0.35
46	PRPF4 (pre-mRNA splicing tri-snRNP complex factor PRPF4)	1	-0.26
47	PRPF4 (pre-mRNA splicing tri-snRNP complex factor PRPF4)	1	0.45
48	PRPF4 (pre-mRNA splicing tri-snRNP complex factor PRPF4)	1	-0.31
49	HOXD10 (homeobox D10)	1	-1.04
50	HOXD10 (homeobox D10)	1	-0.3
51	HOXD10 (homeobox D10)	1	-0.27
52	HOXD10 (homeobox D10)	1	0.83
53	S1PR3 (sphingosine-1-phosphate receptor 3)	1	0.55
54	S1PR3 (sphingosine-1-phosphate receptor 3)	1	0.53
55	S1PR3 (sphingosine-1-phosphate receptor 3)	1	0.66
56	S1PR3 (sphingosine-1-phosphate receptor 3)	1	0.7
57	S1PR3 (sphingosine-1-phosphate receptor 3)	2	-0.26
58	S1PR3 (sphingosine-1-phosphate receptor 3)	2	-0.08
59	S1PR3 (sphingosine-1-phosphate receptor 3)	2	-0.15
60	S1PR3 (sphingosine-1-phosphate receptor 3)	2	0.6
61	SFMBT2 (Scm like with four mbt domains 2)	1	0.8
62	SFMBT2 (Scm like with four mbt domains 2)	1	0.31
63	SFMBT2 (Scm like with four mbt domains 2)	1	2.58
64	SFMBT2 (Scm like with four mbt domains 2)	1	1.66
65	AKNAD1 (AKNA domain containing 1)	1	0.36
66	AKNAD1 (AKNA domain containing 1)	1	1.85
67	AKNAD1 (AKNA domain containing 1)	1	0.7
68	AKNAD1 (AKNA domain containing 1)	1	2.61
69	MED10 (mediator complex subunit 10)	1	-1.98 (active)
70	MED10 (mediator complex subunit 10)	1	-1.88 (active)
71	MED10 (mediator complex subunit 10)	1	-1.59 (active)
72	MED10 (mediator complex subunit 10)	1	-1.54 (active)
73	NDUFS5 (NADH:ubiquinone oxidoreductase subunit S5)	1	1.75
74	NDUFS5 (NADH:ubiquinone oxidoreductase subunit S5)	1	1.45
75	NDUFS5 (NADH:ubiquinone oxidoreductase subunit S5)	1	0.91
76	NDUFS5 (NADH:ubiquinone oxidoreductase subunit S5)	1	1.65
77	ANKLE1 (ankyrin repeat and LEM domain containing 1)	1	-1.2
78	ANKLE1 (ankyrin repeat and LEM domain containing 1)	1	0.33
79	ANKLE1 (ankyrin repeat and LEM domain containing 1)	1	-0.31
80	ANKLE1 (ankyrin repeat and LEM domain containing 1)	1	-0.65
81	NPNT (nephronectin)	1	0.94
82	NPNT (nephronectin)	1	1.02
83	NPNT (nephronectin)	1	-0.12
84	NPNT (nephronectin)	1	1.06
85	RPL30 (ribosomal protein L30)	1	-0.19
86	RPL30 (ribosomal protein L30)	1	0.94
87	RPL30 (ribosomal protein L30)	1	0.92
88	RPL30 (ribosomal protein L30)	1	0.17
89	UBXN2A (UBX domain protein 2A)	1	4.12 (active)
90	UBXN2A (UBX domain protein 2A)	1	5.13 (active)
91	UBXN2A (UBX domain protein 2A)	1	5.21 (active)
92	UBXN2A (UBX domain protein 2A)	1	3.55 (active)
93	SLC12A5	1	1.38
94	SLC12A5	1	2.04
95	SLC12A5	1	1.83
96	SLC12A5	1	1.54
97	HMG20B (high mobility group 20B)	1	0.98
98	HMG20B (high mobility group 20B)	1	1.9
99	HMG20B (high mobility group 20B)	1	1.58
100	HMG20B (high mobility group 20B)	1	0.97
101	KHDRBS3	1	0.26
102	KHDRBS3	1	-0.72
103	KHDRBS3	1	-0.85
104	KHDRBS3	1	-0.67
105	MRPL48 (mitochondrial ribosomal protein L48)	1	0.08
106	MRPL48 (mitochondrial ribosomal protein L48)	1	-0.16
107	MRPL48 (mitochondrial ribosomal protein L48)	1	0.67
108	MRPL48 (mitochondrial ribosomal protein L48)	1	1.2
109	CLEC4G (C-type lectin domain family 4 member G)	1	1.98
110	CLEC4G (C-type lectin domain family 4 member G)	1	0.9
111	CLEC4G (C-type lectin domain family 4 member G)	1	-0.1
112	CLEC4G (C-type lectin domain family 4 member G)	1	0.31
